Results on three molecules are retold here after paper PMC8876890, “Engineering Chimeras by Fusing Plant Receptor-like Kinase EMS1 and BRI1 Reveals the Two Receptors’ Structural Specificity and Molecular Mechanisms” (International Journal of Molecular Sciences, 2022).

Chains of the proteins cited; added tags and fusions are not shown.
UniProt Q8W4L3: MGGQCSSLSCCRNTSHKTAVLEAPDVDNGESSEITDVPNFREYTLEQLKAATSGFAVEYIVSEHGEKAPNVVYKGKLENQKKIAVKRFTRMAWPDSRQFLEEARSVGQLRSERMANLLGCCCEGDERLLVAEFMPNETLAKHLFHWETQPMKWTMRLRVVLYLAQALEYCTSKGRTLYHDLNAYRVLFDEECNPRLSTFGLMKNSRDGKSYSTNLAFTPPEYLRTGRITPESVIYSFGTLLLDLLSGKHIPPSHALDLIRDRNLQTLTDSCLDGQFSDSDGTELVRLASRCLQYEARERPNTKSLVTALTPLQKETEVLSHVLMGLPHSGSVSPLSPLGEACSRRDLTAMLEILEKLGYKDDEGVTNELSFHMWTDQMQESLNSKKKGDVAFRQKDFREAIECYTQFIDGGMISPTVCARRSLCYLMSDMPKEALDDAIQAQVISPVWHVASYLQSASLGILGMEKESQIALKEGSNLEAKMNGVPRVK
UniProt Q944A7: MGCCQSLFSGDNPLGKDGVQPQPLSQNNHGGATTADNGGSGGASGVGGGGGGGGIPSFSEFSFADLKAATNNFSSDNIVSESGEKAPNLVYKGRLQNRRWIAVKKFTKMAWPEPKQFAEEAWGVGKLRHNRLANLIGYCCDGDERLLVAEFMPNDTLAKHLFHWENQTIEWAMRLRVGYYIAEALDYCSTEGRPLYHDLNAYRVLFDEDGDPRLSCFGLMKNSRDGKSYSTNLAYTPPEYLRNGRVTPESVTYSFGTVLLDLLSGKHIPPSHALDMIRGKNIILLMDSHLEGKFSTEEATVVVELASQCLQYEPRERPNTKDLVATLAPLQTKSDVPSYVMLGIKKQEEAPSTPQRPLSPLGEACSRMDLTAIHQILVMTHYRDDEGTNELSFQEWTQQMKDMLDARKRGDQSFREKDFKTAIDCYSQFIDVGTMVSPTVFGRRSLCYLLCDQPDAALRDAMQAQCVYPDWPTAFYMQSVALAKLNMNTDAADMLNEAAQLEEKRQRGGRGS

In test [1] the target is T1, EMS1-nYFP (Arabidopsis thaliana) (UniProt Q9LYN8).
T1 sequence: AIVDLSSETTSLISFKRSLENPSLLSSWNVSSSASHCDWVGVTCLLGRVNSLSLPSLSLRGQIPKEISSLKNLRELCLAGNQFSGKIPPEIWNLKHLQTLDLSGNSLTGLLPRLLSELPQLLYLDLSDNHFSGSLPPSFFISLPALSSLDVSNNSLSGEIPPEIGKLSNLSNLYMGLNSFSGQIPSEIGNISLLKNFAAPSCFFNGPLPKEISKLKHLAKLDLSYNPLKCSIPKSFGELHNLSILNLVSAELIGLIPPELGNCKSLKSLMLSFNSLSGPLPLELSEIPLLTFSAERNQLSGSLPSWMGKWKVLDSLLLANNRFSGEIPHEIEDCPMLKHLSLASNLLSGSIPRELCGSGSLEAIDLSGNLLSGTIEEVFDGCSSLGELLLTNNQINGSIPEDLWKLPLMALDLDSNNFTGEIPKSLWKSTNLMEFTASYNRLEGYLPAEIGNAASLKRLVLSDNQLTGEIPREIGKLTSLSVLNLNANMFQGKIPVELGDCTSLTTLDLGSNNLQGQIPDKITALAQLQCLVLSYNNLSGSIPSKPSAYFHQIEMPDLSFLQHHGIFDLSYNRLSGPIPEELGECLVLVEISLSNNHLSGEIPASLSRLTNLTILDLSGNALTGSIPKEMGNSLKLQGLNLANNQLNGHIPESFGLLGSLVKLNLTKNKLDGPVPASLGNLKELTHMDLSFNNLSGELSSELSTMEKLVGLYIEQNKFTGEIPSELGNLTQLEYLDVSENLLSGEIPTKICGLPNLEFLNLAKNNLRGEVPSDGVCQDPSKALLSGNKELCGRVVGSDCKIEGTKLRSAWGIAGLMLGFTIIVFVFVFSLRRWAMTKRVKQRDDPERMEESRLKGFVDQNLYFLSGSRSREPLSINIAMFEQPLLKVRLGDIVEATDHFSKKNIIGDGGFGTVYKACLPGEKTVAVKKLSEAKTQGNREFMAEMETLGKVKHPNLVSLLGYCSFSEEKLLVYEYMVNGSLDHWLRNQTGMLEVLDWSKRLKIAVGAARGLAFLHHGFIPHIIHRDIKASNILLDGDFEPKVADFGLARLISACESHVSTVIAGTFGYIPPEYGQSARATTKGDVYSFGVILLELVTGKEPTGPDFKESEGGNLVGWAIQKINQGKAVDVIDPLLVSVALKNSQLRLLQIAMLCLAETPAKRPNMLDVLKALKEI
In words: split reporter; BiFC in N. benthamiana leaf epidermal cells; nYFP and cYFP fusions co-expressed by Agrobacterium infiltration with p19; confocal microscopy after 36-48 h.

The target of another test is BSK3-FLAG (UniProt Q8W4L3). Nature of the test: co-IP; total protein of transgenic Arabidopsis Col-0 seedlings (10 mM HEPES pH 7.5, 100 mM NaCl, 1 mM EDTA, 10% glycerol, 0.5% Triton X-100); precipitated with anti-FLAG M2 affinity gel, blot with anti-GFP and anti-FLAG.
Another test addresses BSK1-FLAG (UniProt Q944A7). The test is described as above.

Results are given in words; binding and its absence hold for the method and conditions named. Binding seen in cells or lysates may run through a third protein. Some results given as binding are weak or reduced against the parent protein; the word gives no strength. Where a sequence is shown, tags or fusion partners need not be part of it.

In the case of BSK3-cYFP (from UniProt Q8W4L3 1-489), in test [1], the binding result is on record as “binds”.

As to BSK1-cYFP (from UniProt Q944A7 1-512), the binding entry in test [1] is “binds”.

B1: EMS1-GFP (receptor, UniProt Q9LYN8 19-1192)
chain: T1 sequence
Take B1: the binding result with BSK3-FLAG and in the test with BSK1-FLAG was “binds” in each case.
